In the supplement of paper PMC12823440, “Inhibitors supercharge kinase turnover through native proteolytic circuits” (Nature, 2025):
The list shows a part of the results. The calls rarely recur for the same compound in another form.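 In K562 cells expressing nanoluciferase-fused kinases, luminescence was recorded at 4 h intervals between 2 and 18 h, normalized as percent of control with DMSO at 100% and a positive control at 0%. A significant (2 sigma) signal drop marks a time point as decreased. The authors' rule for a hit is not shown and takes in more than the number of time points.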

Chains of the proteins cited; added tags and fusions are not shown. Lines headed by an entry give the natural chain unless they say otherwise; changes in a name come on top.
UniProt Q14289, whole entry, looked up: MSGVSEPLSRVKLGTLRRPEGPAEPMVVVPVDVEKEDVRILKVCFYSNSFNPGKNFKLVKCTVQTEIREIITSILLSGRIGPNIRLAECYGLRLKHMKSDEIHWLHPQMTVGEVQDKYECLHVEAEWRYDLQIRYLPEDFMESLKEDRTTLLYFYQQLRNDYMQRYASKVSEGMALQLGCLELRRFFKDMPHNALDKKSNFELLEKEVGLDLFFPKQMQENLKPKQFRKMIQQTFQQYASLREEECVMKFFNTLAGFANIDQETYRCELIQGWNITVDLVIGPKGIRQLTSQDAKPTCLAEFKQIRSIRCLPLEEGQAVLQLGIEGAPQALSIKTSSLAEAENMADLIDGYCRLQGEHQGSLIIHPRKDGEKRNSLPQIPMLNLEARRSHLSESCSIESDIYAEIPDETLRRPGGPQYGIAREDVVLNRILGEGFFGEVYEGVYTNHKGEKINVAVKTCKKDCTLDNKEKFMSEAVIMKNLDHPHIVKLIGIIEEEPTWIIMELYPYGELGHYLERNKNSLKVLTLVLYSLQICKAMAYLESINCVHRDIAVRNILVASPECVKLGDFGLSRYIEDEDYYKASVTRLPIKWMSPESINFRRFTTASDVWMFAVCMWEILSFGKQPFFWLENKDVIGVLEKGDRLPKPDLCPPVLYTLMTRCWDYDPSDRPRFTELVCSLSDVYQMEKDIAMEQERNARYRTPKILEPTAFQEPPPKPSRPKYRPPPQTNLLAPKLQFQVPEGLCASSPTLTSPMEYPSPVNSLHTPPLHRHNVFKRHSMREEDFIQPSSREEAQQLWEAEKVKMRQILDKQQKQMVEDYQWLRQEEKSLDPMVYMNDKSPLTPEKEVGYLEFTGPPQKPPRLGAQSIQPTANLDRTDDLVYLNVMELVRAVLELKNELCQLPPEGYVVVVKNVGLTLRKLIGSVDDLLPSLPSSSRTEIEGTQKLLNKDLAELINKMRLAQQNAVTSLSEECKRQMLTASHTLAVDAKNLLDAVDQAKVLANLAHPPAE
UniProt Q9BRS2: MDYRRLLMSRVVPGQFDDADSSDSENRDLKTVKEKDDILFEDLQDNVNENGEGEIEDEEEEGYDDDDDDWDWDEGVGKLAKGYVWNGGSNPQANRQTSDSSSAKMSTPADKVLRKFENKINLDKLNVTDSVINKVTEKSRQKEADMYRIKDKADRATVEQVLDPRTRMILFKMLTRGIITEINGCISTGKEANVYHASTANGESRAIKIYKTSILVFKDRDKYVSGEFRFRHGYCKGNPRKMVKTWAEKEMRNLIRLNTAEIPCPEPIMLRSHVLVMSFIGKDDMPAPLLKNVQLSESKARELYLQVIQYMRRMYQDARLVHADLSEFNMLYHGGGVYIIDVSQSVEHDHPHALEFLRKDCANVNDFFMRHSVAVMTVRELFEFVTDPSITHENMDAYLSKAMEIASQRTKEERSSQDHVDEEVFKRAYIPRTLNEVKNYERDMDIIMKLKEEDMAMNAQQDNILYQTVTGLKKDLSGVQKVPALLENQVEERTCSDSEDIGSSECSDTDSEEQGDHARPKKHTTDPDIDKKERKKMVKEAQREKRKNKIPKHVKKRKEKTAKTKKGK
UniProt Q13546: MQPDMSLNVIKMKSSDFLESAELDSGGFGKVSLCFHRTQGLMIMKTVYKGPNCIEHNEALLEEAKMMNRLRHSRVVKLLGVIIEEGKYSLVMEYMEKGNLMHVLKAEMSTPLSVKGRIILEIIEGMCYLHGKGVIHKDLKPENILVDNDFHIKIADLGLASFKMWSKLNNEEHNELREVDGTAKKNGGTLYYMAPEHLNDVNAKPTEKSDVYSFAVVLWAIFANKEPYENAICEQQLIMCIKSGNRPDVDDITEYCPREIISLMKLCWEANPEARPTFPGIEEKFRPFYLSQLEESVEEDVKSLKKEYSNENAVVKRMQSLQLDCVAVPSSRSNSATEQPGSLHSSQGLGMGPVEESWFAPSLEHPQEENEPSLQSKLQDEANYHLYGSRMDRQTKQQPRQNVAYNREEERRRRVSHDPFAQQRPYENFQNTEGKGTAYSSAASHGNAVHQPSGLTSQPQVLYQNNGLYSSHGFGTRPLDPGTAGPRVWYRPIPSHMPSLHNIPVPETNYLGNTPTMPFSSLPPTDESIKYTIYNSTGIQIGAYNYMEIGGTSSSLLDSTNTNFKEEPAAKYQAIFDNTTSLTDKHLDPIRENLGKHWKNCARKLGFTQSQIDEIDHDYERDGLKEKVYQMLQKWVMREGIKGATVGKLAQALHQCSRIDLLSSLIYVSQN
UniProt Q01974, whole entry: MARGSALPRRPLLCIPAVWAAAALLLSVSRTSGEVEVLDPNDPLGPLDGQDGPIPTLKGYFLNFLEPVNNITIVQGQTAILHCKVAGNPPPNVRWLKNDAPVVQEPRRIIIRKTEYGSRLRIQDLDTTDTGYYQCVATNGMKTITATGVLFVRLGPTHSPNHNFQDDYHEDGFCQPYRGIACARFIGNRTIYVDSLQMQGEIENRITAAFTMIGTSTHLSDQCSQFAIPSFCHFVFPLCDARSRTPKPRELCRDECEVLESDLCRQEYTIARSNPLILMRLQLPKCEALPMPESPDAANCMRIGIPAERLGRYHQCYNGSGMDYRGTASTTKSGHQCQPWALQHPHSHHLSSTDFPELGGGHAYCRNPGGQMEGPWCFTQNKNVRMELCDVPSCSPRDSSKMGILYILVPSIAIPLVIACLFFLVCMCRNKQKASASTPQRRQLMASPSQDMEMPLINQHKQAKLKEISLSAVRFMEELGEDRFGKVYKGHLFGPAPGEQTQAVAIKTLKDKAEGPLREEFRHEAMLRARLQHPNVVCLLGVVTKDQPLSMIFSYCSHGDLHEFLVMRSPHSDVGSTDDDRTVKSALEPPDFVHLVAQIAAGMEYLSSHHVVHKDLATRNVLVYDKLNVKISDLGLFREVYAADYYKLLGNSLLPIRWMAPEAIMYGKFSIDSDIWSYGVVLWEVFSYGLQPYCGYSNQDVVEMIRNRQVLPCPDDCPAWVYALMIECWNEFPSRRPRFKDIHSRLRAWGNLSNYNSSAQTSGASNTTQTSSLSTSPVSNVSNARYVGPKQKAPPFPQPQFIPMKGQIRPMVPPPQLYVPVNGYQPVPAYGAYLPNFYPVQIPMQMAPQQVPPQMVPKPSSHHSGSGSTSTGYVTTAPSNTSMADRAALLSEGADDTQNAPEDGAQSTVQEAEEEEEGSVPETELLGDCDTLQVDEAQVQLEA
UniProt Q9NYA1, whole entry: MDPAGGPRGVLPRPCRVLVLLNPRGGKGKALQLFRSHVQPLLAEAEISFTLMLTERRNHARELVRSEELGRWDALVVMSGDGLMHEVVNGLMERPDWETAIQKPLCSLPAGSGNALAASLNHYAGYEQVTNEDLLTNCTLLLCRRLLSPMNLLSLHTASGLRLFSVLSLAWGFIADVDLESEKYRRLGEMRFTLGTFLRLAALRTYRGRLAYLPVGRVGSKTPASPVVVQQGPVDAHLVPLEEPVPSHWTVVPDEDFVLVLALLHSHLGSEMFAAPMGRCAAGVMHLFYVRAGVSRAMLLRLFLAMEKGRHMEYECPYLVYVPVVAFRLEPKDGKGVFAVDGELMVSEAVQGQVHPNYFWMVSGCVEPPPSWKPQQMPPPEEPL
UniProt Q9Y6E0: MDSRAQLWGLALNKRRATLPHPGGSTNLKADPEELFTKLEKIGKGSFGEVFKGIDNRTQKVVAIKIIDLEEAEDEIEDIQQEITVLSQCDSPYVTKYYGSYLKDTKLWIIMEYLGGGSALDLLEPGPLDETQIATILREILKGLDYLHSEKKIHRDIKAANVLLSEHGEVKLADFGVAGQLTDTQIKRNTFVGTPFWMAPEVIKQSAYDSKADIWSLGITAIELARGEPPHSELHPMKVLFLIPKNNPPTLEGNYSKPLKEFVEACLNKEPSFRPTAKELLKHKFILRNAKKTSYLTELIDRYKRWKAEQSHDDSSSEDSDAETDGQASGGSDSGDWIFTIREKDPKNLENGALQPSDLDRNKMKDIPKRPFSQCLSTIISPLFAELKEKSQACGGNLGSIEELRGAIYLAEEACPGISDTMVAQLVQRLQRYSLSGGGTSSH
UniProt Q15208: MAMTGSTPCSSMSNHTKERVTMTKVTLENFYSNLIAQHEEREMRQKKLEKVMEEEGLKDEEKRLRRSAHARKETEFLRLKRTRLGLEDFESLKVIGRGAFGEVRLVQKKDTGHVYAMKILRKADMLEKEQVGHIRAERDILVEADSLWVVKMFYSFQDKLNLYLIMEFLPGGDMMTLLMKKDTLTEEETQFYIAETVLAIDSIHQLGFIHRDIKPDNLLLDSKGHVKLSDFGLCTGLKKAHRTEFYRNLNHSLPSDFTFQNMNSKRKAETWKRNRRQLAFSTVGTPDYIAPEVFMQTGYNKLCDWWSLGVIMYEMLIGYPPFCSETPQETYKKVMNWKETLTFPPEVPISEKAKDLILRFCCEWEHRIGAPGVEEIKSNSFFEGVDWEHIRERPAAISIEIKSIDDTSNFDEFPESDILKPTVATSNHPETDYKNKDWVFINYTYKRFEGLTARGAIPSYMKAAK
UniProt P42680: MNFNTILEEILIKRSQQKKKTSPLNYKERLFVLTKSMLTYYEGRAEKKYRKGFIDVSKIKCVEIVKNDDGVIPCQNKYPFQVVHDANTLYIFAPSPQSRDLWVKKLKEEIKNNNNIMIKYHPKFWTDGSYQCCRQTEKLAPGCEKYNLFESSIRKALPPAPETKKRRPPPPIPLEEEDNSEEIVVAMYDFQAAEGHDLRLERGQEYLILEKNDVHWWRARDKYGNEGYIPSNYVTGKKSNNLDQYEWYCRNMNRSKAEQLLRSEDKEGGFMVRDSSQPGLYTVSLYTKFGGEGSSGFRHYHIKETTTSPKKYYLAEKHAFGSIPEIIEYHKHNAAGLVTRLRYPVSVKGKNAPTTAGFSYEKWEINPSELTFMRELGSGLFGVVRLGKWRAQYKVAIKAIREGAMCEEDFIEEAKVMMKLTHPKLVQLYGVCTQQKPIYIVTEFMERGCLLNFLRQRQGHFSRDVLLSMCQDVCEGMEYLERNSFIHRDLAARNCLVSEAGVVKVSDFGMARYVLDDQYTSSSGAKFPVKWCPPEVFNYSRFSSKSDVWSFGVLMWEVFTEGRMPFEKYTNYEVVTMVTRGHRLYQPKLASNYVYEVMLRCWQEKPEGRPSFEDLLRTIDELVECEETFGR
UniProt Q6PHR2: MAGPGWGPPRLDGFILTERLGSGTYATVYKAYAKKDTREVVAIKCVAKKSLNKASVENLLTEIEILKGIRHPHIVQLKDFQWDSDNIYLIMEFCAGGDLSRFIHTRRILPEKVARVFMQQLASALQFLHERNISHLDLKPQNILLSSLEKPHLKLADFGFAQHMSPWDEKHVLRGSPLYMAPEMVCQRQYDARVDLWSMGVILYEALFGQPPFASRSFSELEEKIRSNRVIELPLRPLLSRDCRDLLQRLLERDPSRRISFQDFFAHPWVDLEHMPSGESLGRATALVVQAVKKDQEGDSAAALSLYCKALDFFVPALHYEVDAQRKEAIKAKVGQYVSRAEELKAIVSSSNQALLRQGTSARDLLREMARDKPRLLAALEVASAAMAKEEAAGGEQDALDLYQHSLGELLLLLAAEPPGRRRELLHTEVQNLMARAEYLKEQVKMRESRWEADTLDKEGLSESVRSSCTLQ

Columns and labels:
Assay in all cases: number of time points (of 5) at which kinase-Nluc abundance scored as decreased, DMSO-normalised (count); higher = more persistent destabilization
Conditions in all cases: K562; 2-18 h
[1] = biological target: PRKCA (UniProt P17252)
[2] = biological target: PTK2 (UniProt Q05397)
[3] = biological target: PTK2B (UniProt Q14289)
[4] = biological target: RAF1 (UniProt P04049)
[5] = biological target: RAF1_S257L (clone: RAF1_mut) (UniProt P04049)
[6] = biological target: RET (UniProt P07949)
[7] = biological target: RET_M918T (clone: RET_mut) (UniProt P07949)
[8] = biological target: RIOK1 (UniProt Q9BRS2)
[9] = biological target: RIPK1 (UniProt Q13546)
[10] = biological target: RIPK2 (UniProt O43353)
[11] = biological target: ROR2 (UniProt Q01974)
[12] = biological target: RPS6KA1 (UniProt Q15418)
[13] = biological target: SPHK1 (UniProt Q9NYA1)
[14] = biological target: SRC (UniProt P12931)
[15] = biological target: STK24 (UniProt Q9Y6E0)
[16] = biological target: STK38 (UniProt Q15208)
[17] = biological target: SYK (UniProt P43405)
[18] = biological target: TEC (UniProt P42680)
[19] = biological target: TYK2 (UniProt P29597)
[20] = biological target: ULK3 (UniProt Q6PHR2)

Measured: number of time points

COc1ccc(-c2c(C)nn3c(NCCN4CCOCC4)cc(C)nc23)cc1OC (10 µM)
0: all assays above

CC(=O)c1c(C)c2cnc(Nc3ccc(N4CCN(C(=O)CNc5cccc6c5C(=O)N(C5CCC(=O)NC5=O)C6=O)CC4)cn3)nc2n(C2CCCC2)c1=O (stereo not given) (10 µM)
0: all assays above

CC(C)=CCc1c(-c2ccc(O)cc2O)oc2c3c(cc(O)c2c1=O)OC(C)(C)C=C3 [Morusin] (2.5 µM)
0: all assays above

Cn1cnc([N+](=O)[O-])c1C[N+](C)(C)C/C=C/C(=O)Nc1cc2c(Nc3ccc(Cl)c(Br)c3)ncnc2cn1 [Tarloxotinib (bromide)] (10 µM)
0: all assays above

Nc1ncnc2c1c(-c1ccc(Oc3ccccc3)cc1)nn2C1CCN(CCOCCOCCOc2ccc3c(c2)CN(C2CCC(=O)NC2=O)C3=O)CC1 (stereo not given) (2.5 µM)
4: [18]
0: all other assays above

O=c1cc(-c2cccc3c2Sc2ccccc2S3)oc(N2CCOCC2)c1 (10 µM)
0: all assays above

NC1=NCCN1CC(=O)O [Cyclocreatine] (10 µM)
0: all assays above

Arranged by length of the SMILES (rising): part of the list above.
O=c1cc(-c2cccc3c2Sc2ccccc2S3)oc(N2CCOCC2)c1 (10 µM)
0: all assays above

CC(C)=CCc1c(-c2ccc(O)cc2O)oc2c3c(cc(O)c2c1=O)OC(C)(C)C=C3 [Morusin] (2.5 µM)
0: all assays above

Cn1cnc([N+](=O)[O-])c1C[N+](C)(C)C/C=C/C(=O)Nc1cc2c(Nc3ccc(Cl)c(Br)c3)ncnc2cn1 [Tarloxotinib (bromide)] (10 µM)
0: all assays above

Remaining list, next part

COc1ccc(N=Nc2c(N)n[nH]c2N)cc1 (10 µM)
0: all assays above

C=CC(=O)N1C(=O)CC(c2ccc(F)cc2)Sc2ccccc21 (stereo not drawn) [GSK-3β inhibitor 3] (10 µM)
1: [2]
0: all other assays above

O=C(N[C@@H](C1CC1)C(F)(F)F)c1cc(-c2cnn3cc(-c4ccc(F)cc4)cnc23)cs1 (10 µM)
3: [10]
0: all other assays above

CCN(CC)c1cc2oc(=O)c(-c3nc4ccccc4o3)cc2cc1C (2.5 µM)
1: [13]
0: all other assays above

Cn1ncc2cc(-c3cnc(N)c(Cl)c3N3CCC4(CCNC4=O)CC3)ccc21 (10 µM)
0: all assays above
